Patent US20020141999A1
Results are given in words; binding and its absence hold for the method and conditions named. Some binding calls cover weakened binding; strength is not graded here. Sequences can lack the tags named with a protein.

Key:
[1] = biological target: T1, murine K12, full length, on transfected cells (mouse) (UniProt Q9JL59); experiment: Fc fusion binding to transfected cells
T1 sequence: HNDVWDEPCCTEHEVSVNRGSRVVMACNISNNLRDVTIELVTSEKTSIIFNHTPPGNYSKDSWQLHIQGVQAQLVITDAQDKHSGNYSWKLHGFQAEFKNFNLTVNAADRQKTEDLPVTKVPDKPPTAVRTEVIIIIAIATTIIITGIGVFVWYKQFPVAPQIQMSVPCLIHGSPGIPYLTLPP

[2] = biological target: T1, murine K12, full length, on transfected cells (mouse); experiment: Fc fusion binding to transfected cells, 125I anti-human Fc

binding [1]: binds
binding [2]: binds
B1: murine CD7-Fc fusion protein (Fc fusion, not shown: a dimerising Fc or GST)
chain: QDVHQSPRLTIASEGDSVNITCSTRGHLEGILMKKIWPQAYNVIYLEDRQEPTVDRTFSGRINFSGSQKNLTITISSLQLADTGDYTCEAVRKVSARGLFTTVVVKEKSSQEAYRSQEPLQTSFSFP
